Laboratory results reported in publication PMC10899400.

The chains behind the UniProt entries cited, without tags or fusion partners. Residues count along the entry.
UniProt Q07955, 1-196 Y37S/Y72S: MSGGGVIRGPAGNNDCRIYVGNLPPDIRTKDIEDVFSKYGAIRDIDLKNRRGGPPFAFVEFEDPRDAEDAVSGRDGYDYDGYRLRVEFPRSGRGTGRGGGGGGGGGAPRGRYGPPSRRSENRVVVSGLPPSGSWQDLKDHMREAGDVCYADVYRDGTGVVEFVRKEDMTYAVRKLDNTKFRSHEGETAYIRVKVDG

Target: SRSF1 RRM1-2 Y37S,Y72S (UniProt Q07955)
Assay: 19F NMR
Settings: 40% HeLa nuclear extract; 2'-F at G6 and A20; NMR buffer 20 mM NaHPO4 pH 6.5, 100 mM NaCl, 1 mM beta-mercaptoethanol, 50 mM L-Arg, 50 mM L-Glu; 19F NMR of free RNA at 303 K, with or without 40% HeLa nuclear extract; recombinant protein; residues 1-196; protein details: N-terminal GB1-His-TEV, removed; label: 19F (2'-F at G6 and A20)

Sequence “UUACAGGGUUUUAGACAAAAU [RNA2 (2'-F-G6, 2'-F-A20)]” has a binding signal (PIR of G6 (A20 PIR 1)) of 0.

The exact form of at least one protein or probe is not confirmed. The direction of at least one scale is not stated here.
